According to the supplement of paper PMC10849652:
This is one part of the list.

Sequences of proteins named here, by UniProt entry; tags and fusion partners are left off. A change or cut given only in a name is not applied to a line headed by its entry.
UniProt Q10713: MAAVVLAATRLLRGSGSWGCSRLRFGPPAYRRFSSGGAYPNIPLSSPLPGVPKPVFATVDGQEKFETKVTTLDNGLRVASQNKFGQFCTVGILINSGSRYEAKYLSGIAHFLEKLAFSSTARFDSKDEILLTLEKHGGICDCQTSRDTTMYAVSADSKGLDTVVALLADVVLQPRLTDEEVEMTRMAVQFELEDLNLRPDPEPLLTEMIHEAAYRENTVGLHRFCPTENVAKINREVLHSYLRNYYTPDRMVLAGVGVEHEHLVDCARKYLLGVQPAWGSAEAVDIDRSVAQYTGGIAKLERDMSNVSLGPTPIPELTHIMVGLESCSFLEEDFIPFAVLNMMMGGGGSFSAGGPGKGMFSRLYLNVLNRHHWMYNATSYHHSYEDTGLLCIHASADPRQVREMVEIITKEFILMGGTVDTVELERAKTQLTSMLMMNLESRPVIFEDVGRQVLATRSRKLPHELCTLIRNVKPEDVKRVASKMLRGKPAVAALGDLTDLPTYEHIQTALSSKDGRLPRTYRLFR
UniProt P62937, whole entry, looked up: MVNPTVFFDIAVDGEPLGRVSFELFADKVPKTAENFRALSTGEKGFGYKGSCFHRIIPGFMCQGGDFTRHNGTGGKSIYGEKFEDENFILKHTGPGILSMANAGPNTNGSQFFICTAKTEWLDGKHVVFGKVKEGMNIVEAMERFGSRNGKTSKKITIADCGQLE
UniProt Q15181: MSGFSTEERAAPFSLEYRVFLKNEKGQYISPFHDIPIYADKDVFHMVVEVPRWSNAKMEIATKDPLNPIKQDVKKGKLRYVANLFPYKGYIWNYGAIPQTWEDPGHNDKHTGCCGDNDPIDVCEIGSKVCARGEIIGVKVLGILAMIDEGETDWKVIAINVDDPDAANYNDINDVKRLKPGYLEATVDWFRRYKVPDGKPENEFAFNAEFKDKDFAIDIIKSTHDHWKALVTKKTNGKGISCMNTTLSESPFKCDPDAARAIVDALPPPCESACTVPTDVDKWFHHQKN
UniProt Q9UNP9: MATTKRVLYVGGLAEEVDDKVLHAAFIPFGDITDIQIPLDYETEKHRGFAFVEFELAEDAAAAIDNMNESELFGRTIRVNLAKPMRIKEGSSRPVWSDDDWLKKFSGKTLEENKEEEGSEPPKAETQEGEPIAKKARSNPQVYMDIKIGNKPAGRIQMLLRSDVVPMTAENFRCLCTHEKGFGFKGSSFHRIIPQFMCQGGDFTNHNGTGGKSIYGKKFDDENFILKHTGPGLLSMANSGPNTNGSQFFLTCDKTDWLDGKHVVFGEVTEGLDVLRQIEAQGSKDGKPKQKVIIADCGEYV
UniProt P56282: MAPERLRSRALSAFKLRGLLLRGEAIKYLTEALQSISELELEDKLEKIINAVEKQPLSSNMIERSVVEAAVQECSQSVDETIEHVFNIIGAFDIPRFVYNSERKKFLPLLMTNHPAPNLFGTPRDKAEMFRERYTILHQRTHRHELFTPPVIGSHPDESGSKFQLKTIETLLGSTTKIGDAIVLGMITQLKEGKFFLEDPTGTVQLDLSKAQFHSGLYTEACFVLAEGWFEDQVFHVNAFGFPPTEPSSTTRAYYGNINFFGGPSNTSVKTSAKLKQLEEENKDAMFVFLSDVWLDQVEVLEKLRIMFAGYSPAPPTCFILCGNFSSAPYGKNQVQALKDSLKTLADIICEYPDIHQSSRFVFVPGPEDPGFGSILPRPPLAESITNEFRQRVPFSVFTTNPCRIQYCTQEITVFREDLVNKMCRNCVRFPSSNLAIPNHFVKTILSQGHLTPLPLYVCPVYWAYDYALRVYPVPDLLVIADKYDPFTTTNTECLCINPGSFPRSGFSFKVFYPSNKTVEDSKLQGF
UniProt P16435: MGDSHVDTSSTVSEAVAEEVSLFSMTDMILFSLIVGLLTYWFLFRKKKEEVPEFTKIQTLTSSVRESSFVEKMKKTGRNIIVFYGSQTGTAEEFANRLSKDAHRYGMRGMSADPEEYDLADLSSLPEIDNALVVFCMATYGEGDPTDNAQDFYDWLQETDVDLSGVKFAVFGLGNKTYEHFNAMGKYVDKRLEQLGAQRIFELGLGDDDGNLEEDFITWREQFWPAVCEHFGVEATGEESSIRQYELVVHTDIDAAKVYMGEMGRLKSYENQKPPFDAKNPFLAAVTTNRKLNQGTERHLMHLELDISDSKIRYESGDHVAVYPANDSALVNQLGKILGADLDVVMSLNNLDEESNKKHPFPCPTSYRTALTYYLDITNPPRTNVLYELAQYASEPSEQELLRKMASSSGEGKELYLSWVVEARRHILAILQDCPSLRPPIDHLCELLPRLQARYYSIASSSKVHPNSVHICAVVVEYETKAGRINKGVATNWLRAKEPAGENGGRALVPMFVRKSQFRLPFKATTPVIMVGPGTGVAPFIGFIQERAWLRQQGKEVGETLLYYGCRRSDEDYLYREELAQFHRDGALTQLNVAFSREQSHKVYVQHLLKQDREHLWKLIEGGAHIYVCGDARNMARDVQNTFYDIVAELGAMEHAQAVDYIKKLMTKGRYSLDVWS
UniProt P14859: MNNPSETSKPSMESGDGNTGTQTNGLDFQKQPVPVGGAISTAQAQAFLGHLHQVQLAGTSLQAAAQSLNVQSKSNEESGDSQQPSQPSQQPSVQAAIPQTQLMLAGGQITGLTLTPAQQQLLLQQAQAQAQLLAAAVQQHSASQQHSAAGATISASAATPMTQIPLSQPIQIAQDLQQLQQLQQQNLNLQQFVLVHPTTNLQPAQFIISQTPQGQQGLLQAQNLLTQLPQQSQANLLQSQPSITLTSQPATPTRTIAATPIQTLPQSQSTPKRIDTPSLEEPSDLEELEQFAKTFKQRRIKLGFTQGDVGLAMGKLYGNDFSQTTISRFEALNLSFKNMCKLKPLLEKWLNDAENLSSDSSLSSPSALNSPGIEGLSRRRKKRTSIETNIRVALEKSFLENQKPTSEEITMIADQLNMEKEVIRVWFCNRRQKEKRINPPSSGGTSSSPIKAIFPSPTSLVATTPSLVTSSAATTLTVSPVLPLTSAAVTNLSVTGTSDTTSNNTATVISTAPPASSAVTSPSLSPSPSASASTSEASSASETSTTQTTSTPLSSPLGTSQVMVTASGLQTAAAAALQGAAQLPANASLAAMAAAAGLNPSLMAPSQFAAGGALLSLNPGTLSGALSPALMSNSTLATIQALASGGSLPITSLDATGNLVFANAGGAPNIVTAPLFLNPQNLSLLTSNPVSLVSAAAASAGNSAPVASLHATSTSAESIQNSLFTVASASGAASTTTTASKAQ
UniProt Q14181: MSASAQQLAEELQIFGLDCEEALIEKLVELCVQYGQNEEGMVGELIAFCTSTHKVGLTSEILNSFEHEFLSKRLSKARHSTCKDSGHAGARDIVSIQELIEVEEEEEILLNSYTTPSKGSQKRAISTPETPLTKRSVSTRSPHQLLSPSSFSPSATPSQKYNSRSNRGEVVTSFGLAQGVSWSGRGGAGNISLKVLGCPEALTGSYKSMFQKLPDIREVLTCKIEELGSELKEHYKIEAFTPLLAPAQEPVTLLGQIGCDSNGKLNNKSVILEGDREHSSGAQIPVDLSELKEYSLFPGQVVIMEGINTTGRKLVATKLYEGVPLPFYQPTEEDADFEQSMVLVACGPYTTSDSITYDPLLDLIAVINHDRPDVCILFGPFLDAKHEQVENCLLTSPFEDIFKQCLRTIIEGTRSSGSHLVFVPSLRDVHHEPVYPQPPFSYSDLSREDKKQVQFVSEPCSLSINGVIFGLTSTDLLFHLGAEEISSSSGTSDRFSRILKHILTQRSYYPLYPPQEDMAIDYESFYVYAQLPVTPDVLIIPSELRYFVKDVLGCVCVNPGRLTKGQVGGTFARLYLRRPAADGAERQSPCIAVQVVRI
UniProt Q9Y2S7: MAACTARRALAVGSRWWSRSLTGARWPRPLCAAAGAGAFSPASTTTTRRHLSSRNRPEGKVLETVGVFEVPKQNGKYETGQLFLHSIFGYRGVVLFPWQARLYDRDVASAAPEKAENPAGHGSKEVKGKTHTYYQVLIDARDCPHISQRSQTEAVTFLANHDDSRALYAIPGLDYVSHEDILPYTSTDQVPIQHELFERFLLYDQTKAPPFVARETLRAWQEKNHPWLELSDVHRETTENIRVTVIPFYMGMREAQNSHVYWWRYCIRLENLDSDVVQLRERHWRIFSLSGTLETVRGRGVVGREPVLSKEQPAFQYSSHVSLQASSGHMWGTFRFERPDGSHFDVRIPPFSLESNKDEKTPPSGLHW
UniProt O15031: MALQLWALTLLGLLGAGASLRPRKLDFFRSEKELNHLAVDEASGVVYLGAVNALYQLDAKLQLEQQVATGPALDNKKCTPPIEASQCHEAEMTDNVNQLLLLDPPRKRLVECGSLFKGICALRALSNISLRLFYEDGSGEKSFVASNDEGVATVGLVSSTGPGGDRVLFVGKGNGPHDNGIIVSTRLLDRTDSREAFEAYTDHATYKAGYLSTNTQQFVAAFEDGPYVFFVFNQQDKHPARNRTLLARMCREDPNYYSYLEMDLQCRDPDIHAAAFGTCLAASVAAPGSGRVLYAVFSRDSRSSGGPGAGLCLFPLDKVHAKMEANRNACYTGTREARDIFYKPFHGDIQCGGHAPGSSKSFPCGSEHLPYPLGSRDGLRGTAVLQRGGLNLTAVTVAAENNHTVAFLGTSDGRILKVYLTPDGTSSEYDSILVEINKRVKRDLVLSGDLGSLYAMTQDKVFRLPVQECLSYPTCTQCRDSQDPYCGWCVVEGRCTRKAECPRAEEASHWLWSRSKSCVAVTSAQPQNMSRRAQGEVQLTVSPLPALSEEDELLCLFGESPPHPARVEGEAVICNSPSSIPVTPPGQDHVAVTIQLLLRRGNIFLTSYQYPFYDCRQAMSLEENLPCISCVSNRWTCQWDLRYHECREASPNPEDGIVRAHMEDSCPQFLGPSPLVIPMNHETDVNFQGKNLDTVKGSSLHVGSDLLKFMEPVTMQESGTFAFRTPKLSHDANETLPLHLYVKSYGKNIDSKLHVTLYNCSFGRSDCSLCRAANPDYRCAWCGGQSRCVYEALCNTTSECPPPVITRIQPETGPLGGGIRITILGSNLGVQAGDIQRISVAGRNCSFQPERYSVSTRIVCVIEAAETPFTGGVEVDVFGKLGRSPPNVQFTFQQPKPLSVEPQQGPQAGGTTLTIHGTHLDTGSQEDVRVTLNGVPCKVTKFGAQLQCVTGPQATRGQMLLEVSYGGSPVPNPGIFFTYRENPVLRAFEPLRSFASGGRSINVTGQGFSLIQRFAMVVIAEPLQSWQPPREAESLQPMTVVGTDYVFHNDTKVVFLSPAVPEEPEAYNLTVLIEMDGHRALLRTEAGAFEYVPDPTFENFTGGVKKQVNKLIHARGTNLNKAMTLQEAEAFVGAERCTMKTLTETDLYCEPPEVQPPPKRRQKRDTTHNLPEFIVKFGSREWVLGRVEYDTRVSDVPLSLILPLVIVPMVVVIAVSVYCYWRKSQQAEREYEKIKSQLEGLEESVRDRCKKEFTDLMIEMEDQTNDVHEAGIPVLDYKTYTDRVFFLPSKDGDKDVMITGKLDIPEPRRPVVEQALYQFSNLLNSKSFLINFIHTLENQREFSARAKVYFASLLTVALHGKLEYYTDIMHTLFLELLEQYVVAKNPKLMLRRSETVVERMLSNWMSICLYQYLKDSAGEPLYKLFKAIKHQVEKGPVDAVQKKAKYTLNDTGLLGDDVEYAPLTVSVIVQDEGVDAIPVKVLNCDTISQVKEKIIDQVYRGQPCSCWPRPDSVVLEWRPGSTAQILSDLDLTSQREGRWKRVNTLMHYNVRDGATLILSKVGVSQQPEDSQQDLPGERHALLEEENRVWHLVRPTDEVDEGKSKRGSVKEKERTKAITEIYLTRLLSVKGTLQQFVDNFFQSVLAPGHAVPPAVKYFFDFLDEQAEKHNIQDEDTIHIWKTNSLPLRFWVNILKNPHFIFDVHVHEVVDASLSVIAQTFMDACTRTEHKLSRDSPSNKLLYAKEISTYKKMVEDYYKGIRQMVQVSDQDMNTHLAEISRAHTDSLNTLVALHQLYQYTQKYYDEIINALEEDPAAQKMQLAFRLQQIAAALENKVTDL
UniProt Q969H6: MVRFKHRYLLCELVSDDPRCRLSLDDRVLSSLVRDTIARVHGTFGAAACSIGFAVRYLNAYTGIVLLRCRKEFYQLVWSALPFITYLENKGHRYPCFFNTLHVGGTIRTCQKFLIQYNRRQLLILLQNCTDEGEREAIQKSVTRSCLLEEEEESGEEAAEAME
UniProt Q15165: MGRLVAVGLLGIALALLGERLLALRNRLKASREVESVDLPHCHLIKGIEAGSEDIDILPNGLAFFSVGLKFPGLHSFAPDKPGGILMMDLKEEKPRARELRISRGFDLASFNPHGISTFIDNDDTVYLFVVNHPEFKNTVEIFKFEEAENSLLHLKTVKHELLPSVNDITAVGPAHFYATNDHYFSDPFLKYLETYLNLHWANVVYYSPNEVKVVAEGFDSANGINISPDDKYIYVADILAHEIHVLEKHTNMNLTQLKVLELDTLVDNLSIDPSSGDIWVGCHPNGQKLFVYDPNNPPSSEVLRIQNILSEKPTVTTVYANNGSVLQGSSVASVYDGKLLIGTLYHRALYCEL

Legend:
Test in all cases: log2 fold change, soluble protein after heating vs DMSO (PISA); higher = thermal stabilisation; K562 lysate, 10 uM; active = over 0.2 and 3.5 SD of the protein, either way, in both replicates (recomputed)
erlotinib = compound: C#Cc1cccc(Nc2ncnc3cc(OCCOC)c(OCCOC)cc23)c1 [erlotinib]
Method in brief: (§1)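 A 30 min treatment with 10 μM compound was applied to crude K562 extract at 1 mg/mL protein in PBS pH 7.4 with 1 mM MgCl2. Heating for 3 min spanned 48°C-58°C, after which aliquots were pooled, adjusted to 0.5% NP-40 at 4°C and spun at 21,000xg for 90 min. TMTpro 16plex LC-MS/MS of the supernatant, with channel sums equalised, gave values recorded as log-two fold change in thermal stability against solvent controls, from duplicates.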

[1] = compound: C/C(=N\NC(=O)C1=CC(=CC=C1)S(=O)(=O)N2CCOCC2)/C3=C(C=CC(=C3)Cl)O
Method in brief: as §1

[2] = compound: C1=CC(=CC=C1C2=NC3=C(N2)C=C(C=C3)C(=O)N)OC4=CC=C(C=C4)Cl
Method in brief: as §1

[3] = compound: C1=CC2=C(C=CC(=C2)/C=C\3/C(=O)NC(=NCC4=CC=CS4)S3)N=C1
Method in brief: as §1

[4] = compound: C1=CC2=NC=CN=C2C=C1/C=C/3\C(=O)NC(=O)S3
Method in brief: as §1

[5] = compound: C1=CC=C(C=C1)C2=NC(=C(N2)C3=CC=NC=C3)C4=CC(=C(C=C4)Cl)O
Method in brief: as §1

[6] = compound: C1=CC=C2C(=C1)C3=NNC4=CC=CC(=C43)C2=O
Method in brief: as §1

[7] = compound: C1CCN(C1)C(=O)NC2=CC=CC(=C2)NC3=NC=C(C(=N3)NCCC4=CN=CN4)Br
Method in brief: as §1

[8] = compound: C1CN(CCC1(CC2=CC=C(C=C2)Cl)N)C3=NC=NC4=C3C=CN4
Method in brief: as §1

IRAK-1-4 Inhibitor I = compound: C1COCCN1CCN2C3=CC=CC=C3N=C2NC(=O)C4=CC(=CC=C4)[N+](=O)[O-] [IRAK-1-4 Inhibitor I]
Method in brief: as §1

ibrutinib = compound: C=CC(=O)N1CCC[C@@H](n2nc(-c3ccc(Oc4ccccc4)cc3)c3c(N)ncnc32)C1 [ibrutinib]
Method in brief: as §1

[9] = compound: CC(=O)c1cnc2ccc(-c3cc(Cl)c(O)c(Cl)c3)nc2c1N[C@H]1CC[C@H](CN(C)C)CC1
Method in brief: as §1

ralimetinib = compound: CC(C)(C)Cn1c(N)nc2ccc(-c3[nH]c(C(C)(C)C)nc3-c3ccc(F)cc3)nc21 [ralimetinib]
Method in brief: as §1

[10] = compound: CC(C)(O)CC(=O)NCCn1ccc2ncnc(Nc3ccc(Oc4cccc(C(F)(F)F)c4)c(Cl)c3)c21
Method in brief: as §1

[11] = compound: CC(C)C1=C2N=C(C=C(N2N=C1)NCC3=CC=CC=C3)NCCCCCCN
Method in brief: as §1

[12] = compound: CC1=C(C(CC(=O)N1)C2=CC=C(C=C2)C(F)(F)F)C(=O)NC3=C(C=C4C(=C3)C=NN4)F
Method in brief: as §1

[13] = compound: CC1=C(C2=C(C=C1)C(=O)C3=CC=CC=C3N2CCCN)C
Method in brief: as §1

[14] = compound: CC1=C(C=C(C=C1)NC(=O)C2=CC(=CC=C2)C(C)(C)C#N)NC3=CC4=C(C=C3)N=CN(C4=O)C
Method in brief: as §1

[15] = compound: CC1=C(C=C(C=C1)NC(=O)C2=CC(=CC=C2)N(C)C)NC(=O)C3=CC=C(C=C3)O
Method in brief: as §1

[16] = compound: CC1=CC=C(C=C1)SC2=C3C=C(SC3=CN=C2)C(=O)N
Method in brief: as §1

Measured: log2 fold change

PMS2 (UniProt P54278)
inactive: erlotinib 0.036 | [1] 0.012 | [2] -0.058 | [3] -0.005 | [4] -0.015 | [5] -0.028 | [6] -0.032 | [7] -0.013 | [8] 0.012 | IRAK-1-4 Inhibitor I 0.001 | ibrutinib 0.027 | [9] 0.032 | ralimetinib 0.046 | [10] -0.047 | [11] 0.069 | [12] -0.038 | [13] -0.049 | [14] -0.019 | [15] -0.004 | [16] 0.002

PMPCA (UniProt Q10713)
inactive: erlotinib -0.034 | [1] -0.012 | [2] 0.073 | [3] 0.008 | [4] -0.006 | [5] 0.043 | [6] -0.014 | [7] -0.026 | [8] -0.012 | IRAK-1-4 Inhibitor I 0.007 | ibrutinib -0.052 | [9] -0.023 | ralimetinib 0.006 | [10] -0.038 | [11] -0.047 | [12] -0.043 | [13] -0.041 | [14] 0.033 | [15] -0.036 | [16] 0.015

PNN (UniProt Q9H307)
inactive: erlotinib -0.023 | [1] 0.003 | [2] 0.118 | [3] -0.086 | [4] -0.013 | [5] 0 | [6] 0.006 | [7] -0.008 | [8] -0.032 | IRAK-1-4 Inhibitor I -0.009 | ibrutinib 0.033 | [9] 0.01 | ralimetinib 0.007 | [10] -0.02 | [11] -0.011 | [12] 0 | [13] 0.024 | [14] 0.052 | [15] -0.013 | [16] -0.015

PLEKHO2 (UniProt Q8TD55)
inactive: erlotinib 0.188 | [1] 0.008 | [2] -0.023 | [3] 0.106 | [4] -0.06 | [5] 0.184 | [6] -0.014 | [7] -0.075 | [8] 0.186 | IRAK-1-4 Inhibitor I -0.004 | ibrutinib 0.358 | [9] -0.102 | ralimetinib -0.11 | [10] 0.108 | [11] 0.006 | [12] 0.01 | [13] 0.069 | [14] 0.048 | [15] 0.252 | [16] -0.129

PPIA (UniProt P62937)
inactive: erlotinib -0.042 | [1] -0.086 | [2] 0.002 | [3] -0.025 | [4] -0.022 | [5] -0.005 | [6] 0.023 | [7] 0.01 | [8] 0.009 | IRAK-1-4 Inhibitor I -0.014 | ibrutinib 0.039 | [9] -0.007 | ralimetinib -0.005 | [10] 0.02 | [11] -0.017 | [12] -0.02 | [13] 0.005 | [14] -0.033 | [15] 0.016 | [16] 0.002

PPA1 (UniProt Q15181)
inactive: erlotinib -0.022 | [1] -0.055 | [2] 0.012 | [3] -0.022 | [4] -0.009 | [5] 0.009 | [6] -0.005 | [7] 0.025 | [8] 0.018 | IRAK-1-4 Inhibitor I 0.008 | ibrutinib 0.021 | [9] 0.015 | ralimetinib -0.014 | [10] -0.003 | [11] 0.036 | [12] -0.04 | [13] 0.004 | [14] 0.004 | [15] -0.03 | [16] 0.003

Two neighbouring entries out of the list so far, for reference:
PMPCA (UniProt Q10713)
inactive: erlotinib -0.034 | [1] -0.012 | [2] 0.073 | [3] 0.008 | [4] -0.006 | [5] 0.043 | [6] -0.014 | [7] -0.026 | [8] -0.012 | IRAK-1-4 Inhibitor I 0.007 | ibrutinib -0.052 | [9] -0.023 | ralimetinib 0.006 | [10] -0.038 | [11] -0.047 | [12] -0.043 | [13] -0.041 | [14] 0.033 | [15] -0.036 | [16] 0.015

PNN (UniProt Q9H307)
inactive: erlotinib -0.023 | [1] 0.003 | [2] 0.118 | [3] -0.086 | [4] -0.013 | [5] 0 | [6] 0.006 | [7] -0.008 | [8] -0.032 | IRAK-1-4 Inhibitor I -0.009 | ibrutinib 0.033 | [9] 0.01 | ralimetinib 0.007 | [10] -0.02 | [11] -0.011 | [12] 0 | [13] 0.024 | [14] 0.052 | [15] -0.013 | [16] -0.015

Carrying on.

PPIE (UniProt Q9UNP9)
inactive: erlotinib 0.005 | [1] -0.022 | [2] 0.064 | [3] 0.031 | [4] -0.008 | [5] 0.001 | [6] -0.002 | [7] -0.025 | [8] 0.025 | IRAK-1-4 Inhibitor I -0.019 | ibrutinib -0.047 | [9] -0.015 | ralimetinib -0.041 | [10] -0.05 | [11] -0.025 | [12] -0.043 | [13] 0.021 | [14] 0.024 | [15] 0.034 | [16] -0.035

POLE2 (UniProt P56282)
inactive: erlotinib 0.019 | [1] -0.015 | [2] 0.004 | [3] -0.04 | [4] 0.031 | [5] -0.171 | [6] -0.03 | [7] -0.083 | [8] 0.017 | IRAK-1-4 Inhibitor I 0.029 | ibrutinib 0.04 | [9] 0.189 | ralimetinib 0.048 | [10] -0.016 | [11] -0.024 | [12] 0.029 | [13] 0.004 | [14] 0.01 | [15] 0.009 | [16] 0.259

POR (UniProt P16435)
inactive: erlotinib -0.011 | [1] 0.004 | [2] 0.045 | [3] 0.025 | [4] -0.014 | [5] -0.008 | [6] -0.072 | [7] -0.024 | [8] 0.03 | IRAK-1-4 Inhibitor I 0.004 | ibrutinib -0.002 | [9] -0.031 | ralimetinib -0.017 | [10] -0.025 | [11] -0.025 | [12] 0.006 | [13] 0.015 | [14] -0.012 | [15] -0.004 | [16] -0.023

POU2F1 isoform 6 (UniProt P14859)
inactive: erlotinib -0.01 | [1] -0.045 | [2] -0.042 | [3] 0.037 | [4] 0 | [5] 0.019 | [6] 0.02 | [7] -0.003 | [8] -0.01 | IRAK-1-4 Inhibitor I 0.021 | ibrutinib -0.008 | [9] 0.01 | ralimetinib -0.011 | [10] -0.007 | [11] 0.012 | [12] 0.007 | [13] 0 | [14] -0.024 | [15] 0.011 | [16] -0.038

POLA2 (UniProt Q14181)
inactive: erlotinib -0.004 | [1] 0.044 | [2] 0.037 | [3] -0.015 | [4] -0.019 | [5] 0.002 | [6] 0.001 | [7] -0.02 | [8] -0.003 | IRAK-1-4 Inhibitor I 0.002 | ibrutinib 0.037 | [9] -0.001 | ralimetinib 0.011 | [10] -0.005 | [11] -0.003 | [12] -0.048 | [13] 0.008 | [14] 0.013 | [15] -0.008 | [16] -0.011

POLDIP2 (UniProt Q9Y2S7)
inactive: erlotinib -0.022 | [1] -0.03 | [2] -0.007 | [3] 0.012 | [4] -0.022 | [5] -0.002 | [6] -0.053 | [7] 0.027 | [8] 0.031 | IRAK-1-4 Inhibitor I -0.013 | ibrutinib 0.003 | [9] 0.011 | ralimetinib 0.019 | [10] -0.022 | [11] -0.021 | [12] -0.051 | [13] 0.022 | [14] -0.039 | [15] -0.034 | [16] 0.04

PLXNB2 (UniProt O15031)
inactive: erlotinib -0.014 | [1] -0.027 | [2] -0.013 | [3] -0.04 | [4] -0.037 | [5] 0.005 | [6] -0.018 | [7] -0.017 | [8] 0.049 | IRAK-1-4 Inhibitor I 0.004 | ibrutinib 0.019 | [9] 0.016 | ralimetinib 0.035 | [10] -0.026 | [11] -0.03 | [12] 0.033 | [13] 0.006 | [14] -0.02 | [15] -0.003 | [16] -0.016

POP5 (UniProt Q969H6)
inactive: erlotinib -0.107 | [1] 0.021 | [2] -0.024 | [3] 0.016 | [4] 0.073 | [5] 0.024 | [6] 0.081 | [7] -0.046 | [8] -0.025 | IRAK-1-4 Inhibitor I -0.023 | ibrutinib 0.012 | [9] -0.035 | ralimetinib 0.115 | [10] 0.014 | [11] -0.06 | [12] 0.02 | [13] -0.039 | [14] 0.066 | [15] -0.084 | [16] -0.01

PON2 (UniProt Q15165)
inactive: erlotinib 0.024 | [1] 0.01 | [2] 0.005 | [3] -0.01 | [4] 0.114 | [5] -0.02 | [6] 0.017 | [7] -0.006 | [8] 0.005 | IRAK-1-4 Inhibitor I -0.019 | ibrutinib -0.028 | [9] 0.005 | ralimetinib 0.025 | [10] -0.001 | [11] -0.004 | [12] 0.048 | [13] 0.005 | [14] 0.012 | [15] -0.033 | [16] -0.044

POLR2G (UniProt P62487)
inactive: erlotinib 0.02 | [1] 0.012 | [2] 0.044 | [3] -0.005 | [4] 0.029 | [5] 0.022 | [6] 0.036 | [7] -0.002 | [8] 0.02 | IRAK-1-4 Inhibitor I 0.03 | ibrutinib -0.01 | [9] -0.001 | ralimetinib 0.027 | [10] -0.017 | [11] -0.028 | [12] -0.015 | [13] 0.02 | [14] 0.029 | [15] -0.008 | [16] -0.01
